The nature of this data set: Cycloheximide (CHX) chase assay of CHIP protein half-life. The class given is cell-based, rat. The following applies: cycloheximide 100 μM, hydrogen peroxide 50 μM.

Data on one molecule can be found in patent US20230374087A1, “METHOD TO IMPROVE PROTEIN QUALITY CONTROL” (The Johns Hopkins University, priority 2020, published 2023).

B1: CHIP: endogenous CHIP protein in myocytes expressing only a Myc vector (protein)
chain: MKGKEEKEGGARLGTGGGGSPDKSPSAQELKEQGNRLFVGRKYPEAAACYGRAITRNPLVAVYYTNRALCYLKMQQPEQALADCRRALELDGQSVKAHFFLGQCQLEMESYDEAIANLQRAYSLAKEQRLNFGDDIPSALRIAKKKRWNSIEERRIHQESELHSYLTRLIAAERERELEECQRNHEGHEDDGHIRAQQACIEAKHDKYMADMDELFSQVDEKRKKRDIPDYLCGKISFELMREPCITPSGITYDRKDIEEHLQRVGHFDPVTRSPLTQEQLIPNLAMKEVIDAFISENGWVEDY
For B1, the CHIP protein half-life was about 2 h (PKG activity blocked by PDE5oe) and about 6 h (myocytes expressing only a Myc vector).
